# Laboratory results from patent publication US11787772B2, “Carboxylic diarythiazepineamines as mixed mu- and delta-opioid receptor agonists” (THE TRUSTEES OF COLUMBIA UNIVERSITY IN THE CITY OF NEW YORK, priority 2017, dated 2023).
# The chains behind the UniProt entries cited, without tags or fusion partners.
# UniProt P35372, whole entry: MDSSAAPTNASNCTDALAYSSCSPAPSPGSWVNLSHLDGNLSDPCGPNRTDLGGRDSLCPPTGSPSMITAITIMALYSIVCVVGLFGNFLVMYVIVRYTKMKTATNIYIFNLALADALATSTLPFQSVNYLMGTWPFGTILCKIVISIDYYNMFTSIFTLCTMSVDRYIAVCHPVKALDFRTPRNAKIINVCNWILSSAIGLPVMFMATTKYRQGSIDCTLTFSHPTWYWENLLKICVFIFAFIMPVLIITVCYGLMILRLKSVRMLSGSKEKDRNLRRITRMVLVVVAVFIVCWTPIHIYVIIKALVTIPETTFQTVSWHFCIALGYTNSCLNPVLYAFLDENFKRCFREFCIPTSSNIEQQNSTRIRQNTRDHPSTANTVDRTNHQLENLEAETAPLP
# Some of these results come from one statement about several compounds together.
# Target: T1, human mu opioid receptor (MOR) (Homo sapiens, UniProt P35372)
# T1 construct: expressed in transfected cells; host or cells: HEK-293T
# Assay: BRET assay measuring G protein activation, agonist activity at human MOR
# Type: cell-based
# Details: 15a vs 15b and 15c; 16a vs 16b and 16c
# Procedure: The diarylthiazepinamine carboxylic acids (9) were tested for agonist activity at the human mu opioid receptor (MOR) and delta opioid receptor (DOR) using bioluminescence resonance energy transfer (BRET) assays measuring G protein activation as previously described (Table 1) (Rives, M.-L. et al. 2012; Negri, A. et al. 2013).
# Human MOR cDNA was transfected alongside GααB with RLuc8 inserted at position 91 (GααB—RLuc8), Gβ1 (β1), and Gγ2 fused to the full-length mVenus at its N terminus (mVenus-γ2) into HEK-293T cells (5×10^6 cells/plate) in 10-cm dishes using PEI (Polysciences Inc.; Warrington, PA) in a 1:1 ratio diluted in Opti-MEM (Life Technologies Corp.; Grand Island, NY) to assay for G protein activation as described previously (Rives, M.-L. et al. 2012; Negri, A. et al. 2013). […]
# Transfected cells were dissociated and re-suspended in phosphate-buffered saline (PBS). […] Following coelenterazine H addition, ligands were added and the BRET signal was measured at 5 minutes on a PHERAstar FS plate reader. Quantification of the BRET signal required calculating the ratio of the light emitted by the energy acceptor, mVenus (510-540 nm), over the light emitted by the energy donor, RLuc8 (485 nm). […]
row,Structure (SMILES),Loss of activity at MOR on placing chlorine at position 2 (versus 3-chloro or unsubstituted analogs)
1,"CCOC(=O)CCCCCCNC1c2ccccc2N(C)S(=O)(=O)c2ccc(Cl)cc21 (centres unmarked) [Compound 15a, reference compound]",≥ 6 fold
2,"COCCCNC1c2ccccc2N(C)S(=O)(=O)c2ccc(Cl)cc21 (centres unmarked) [Compound 16a, reference compound]",≥ 6 fold
